Some of the results follow.
target: OsWRKY34 (Oryza sativa, UniProt Q0JBA9 1-250); assay: protein-binding microarray (RPBM); PBS, 2% BSA, 51.3 ng/ul salmon testes DNA, 50 uM zinc acetate, 200 nM TF, 25 C, 1 h; high values mean tight binding; details: protein: recombinant; tags: N-terminal polyhistidine and DsRed monomer fusion (pET32a); label: CyDye5-dUTP incorporated in the synthesized complementary strand; 3' TTTTT single-stranded linker to array surface; dsDNA, one strand shown
Summary of the method: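 Binding signal is defined as the fluorescence intensity of each feature in arbitrary units, read on an Axon 4000B scanner. Transcription factors with N-terminal polyhistidine and DsRed fusions came from E. coli BL21-CodonPlus and were purified on Ni–NTA. They were incubated at 200 nM for 1 h at 25 °C on a custom Agilent array that had been made double-stranded with Cy5-dUTP, with 50 µM zinc acetate present, and the array was washed.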

The chains behind the UniProt entries cited, without tags or fusion partners.
UniProt Q0JBA9, entry or part of it: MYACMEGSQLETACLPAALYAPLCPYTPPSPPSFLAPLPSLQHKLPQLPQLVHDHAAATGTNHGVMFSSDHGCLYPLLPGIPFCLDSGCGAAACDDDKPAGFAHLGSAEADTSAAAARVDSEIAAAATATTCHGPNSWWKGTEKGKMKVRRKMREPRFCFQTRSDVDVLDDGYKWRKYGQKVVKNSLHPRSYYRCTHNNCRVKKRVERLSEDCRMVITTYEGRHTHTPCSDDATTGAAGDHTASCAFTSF

Row | Sequence | binding signal
1 | TATTTTTAATTCTGAATTTCAGTTATTTCCTAATTGTATTCGGAGTCACCTAGTGCAG | 8290 fluorescence intensity (a.u.)
2 | TCTTCGTCTCATCTGTTGCATCTAGTCCGTTCTAATCTCTCGGAGTCACCTAGTGCAG | 8900 fluorescence intensity (a.u.)
3 | ATTGTGTGTTCTTTTTGCTTAATTAAACTTACTCTTTCTGCGGAGTCACCTAGTGCAG | 11900 fluorescence intensity (a.u.)
4 | ACAGCTACGTTATGTTTGTTCCGATTCTCACGAAAGCAGCCGGAGTCACCTAGTGCAG | 8310 fluorescence intensity (a.u.)
5 | ATAGCCAACTACTAGCTCCAATTCATATATAGCCAATCTACGGAGTCACCTAGTGCAG | 8060 fluorescence intensity (a.u.)
6 | CGCGCGGTCGAGGAGGGTGGGGCCGCCGCGCTCACCTCCGCGGAGTCACCTAGTGCAG | 8480 fluorescence intensity (a.u.)
7 | CTCCATTTACTCTACACATGCCCGTGTTCATTCATGCAAACGGAGTCACCTAGTGCAG | 9210 fluorescence intensity (a.u.)
8 | CCCTGGCCCTTGCTTTGATCCTAATGATCCCTATGCCCCGCGGAGTCACCTAGTGCAG | 14400 fluorescence intensity (a.u.)
9 | GGAGGTCAGGATTGTTGTGGTGGGGAATTGGAGGGAAATGCGGAGTCACCTAGTGCAG | 19600 fluorescence intensity (a.u.)
10 | CAACCTTGGCTCATGCCATTCAACCACCATTTTCTATTATCGGAGTCACCTAGTGCAG | 9460 fluorescence intensity (a.u.)
11 | CCTACCAGCAAGCACCCACCACCAGTCCACTCCACAGTCTCGGAGTCACCTAGTGCAG | 10500 fluorescence intensity (a.u.)
12 | TCGGTTTTTACTGCTTCCATCAGACGTCGGTCTGTTTTCGCGGAGTCACCTAGTGCAG | 9470 fluorescence intensity (a.u.)
13 | CTTGACAGCTTATAGTGCAAATCCTGTGGGTTCCCTTCATCGGAGTCACCTAGTGCAG | 8090 fluorescence intensity (a.u.)
14 | TCATTGTTCAGCCTGTTAATCGATCGCTTTAGCCTTTCATCGGAGTCACCTAGTGCAG | 8620 fluorescence intensity (a.u.)
15 | TGGGGAGAGGCTAGGTTGTTAGCTGCAGATTCATTTTATCCGGAGTCACCTAGTGCAG | 8230 fluorescence intensity (a.u.)
16 | TGTAGTGGGGCCTGTCTGTAAATATCATTGTGCTTTAAGCCGGAGTCACCTAGTGCAG | 10500 fluorescence intensity (a.u.)
17 | TTCTCTTGTTCTGTTTCTTGGACTGGTCCACTGTTTTTGGCGGAGTCACCTAGTGCAG | 11100 fluorescence intensity (a.u.)
18 | AATTTTTTCTAGATCTGACACCACATTCTGGTCAAATTCACGGAGTCACCTAGTGCAG | 9010 fluorescence intensity (a.u.)
19 | CCCATTGGCCCACACCGCCAGGTCACTCCACATCCCAACCCGGAGTCACCTAGTGCAG | 10200 fluorescence intensity (a.u.)
20 | GCTTACCTCTCATGAACTATTGGGCCTTAAAGTCTAATAACGGAGTCACCTAGTGCAG | 9180 fluorescence intensity (a.u.)
21 | TCTCCGCACGCCGTCCTGTCAGTCGCGACCCACTCCATCGCGGAGTCACCTAGTGCAG | 8430 fluorescence intensity (a.u.)
22 | AATTTTACAACCATTTATTTCTAATCGATTTCGTCATTTGCGGAGTCACCTAGTGCAG | 9570 fluorescence intensity (a.u.)
23 | TCCCCAAACATTCCATTCTTTTTTCGTTTCCAAAGTTTGTCGGAGTCACCTAGTGCAG | 8610 fluorescence intensity (a.u.)
24 | CCATCAATCCACCGCCCCGCCGCGTCTTCTCCTCGTCGGCCGGAGTCACCTAGTGCAG | 8490 fluorescence intensity (a.u.)
25 | AAACTAGTCAGTAGTCACAACACACCTAACGTTTCTACACCGGAGTCACCTAGTGCAG | 9030 fluorescence intensity (a.u.)
26 | GTAGCTTTTATCGTTGTCAGCCCGCATTTAAAACTTTAATCGGAGTCACCTAGTGCAG | 10600 fluorescence intensity (a.u.)
27 | TTAAAGGGTAGTGGGTCTTTTGGGGTGGAGTGGAGCTGTGCGGAGTCACCTAGTGCAG | 8480 fluorescence intensity (a.u.)

Fetched one by one from above:
Row | Sequence | binding signal
23 | TCCCCAAACATTCCATTCTTTTTTCGTTTCCAAAGTTTGTCGGAGTCACCTAGTGCAG | 8610 fluorescence intensity (a.u.)
9 | GGAGGTCAGGATTGTTGTGGTGGGGAATTGGAGGGAAATGCGGAGTCACCTAGTGCAG | 19600 fluorescence intensity (a.u.)

The list continues.

Row | Sequence | binding signal
28 | TCTAGCGTACAGATGCTGCAACCGTTTTGTTTGTTTCTCCCGGAGTCACCTAGTGCAG | 14200 fluorescence intensity (a.u.)
29 | GCCCAAACCAACCTGATCTCGAGAGGCCATGGCCATCATCCGGAGTCACCTAGTGCAG | 8060 fluorescence intensity (a.u.)
30 | TATGCTTATTCTATTATTCCATGCTTTGCTTTTGTGCAGTCGGAGTCACCTAGTGCAG | 9940 fluorescence intensity (a.u.)
31 | TCCTTCCCGTGTATAAATAGCCCAACAATACACCACTGTTCGGAGTCACCTAGTGCAG | 8140 fluorescence intensity (a.u.)
32 | GTGTCTTGTGCGTTTGCTCTCTCGCGAACCATTCCACAGACGGAGTCACCTAGTGCAG | 8380 fluorescence intensity (a.u.)
33 | CATCGCTGCGCGCACCGAGTCCACATGCACCGGCTCTGACCGGAGTCACCTAGTGCAG | 8050 fluorescence intensity (a.u.)
34 | CCGTATATGTCTGTGTCGTGTCGTTGTCACTGTGTGGTGACGGAGTCACCTAGTGCAG | 12300 fluorescence intensity (a.u.)
35 | GGAAGGGCCTCTGGGTGTAGATTTTTCAGATAGTTTCTGCCGGAGTCACCTAGTGCAG | 10000 fluorescence intensity (a.u.)
36 | CACATCTTCTTGCTCCATCTCTGCTTACTCCACTCTTTCTCGGAGTCACCTAGTGCAG | 14300 fluorescence intensity (a.u.)
37 | CGCTCCACCACCCGCCCGCTCGCCCATTTCCTCTCCCTTTCGGAGTCACCTAGTGCAG | 12300 fluorescence intensity (a.u.)
38 | CCACGCGGCCGCGTCCAGGTCATCGTCGTCGCCTCGCCTCCGGAGTCACCTAGTGCAG | 8930 fluorescence intensity (a.u.)
39 | TGTCTAACATTTGATTATCCGTTTTATTTTAATCTTTTTACGGAGTCACCTAGTGCAG | 9000 fluorescence intensity (a.u.)
40 | TCACTGACATGTGGGTCCCATTTACATTTGTTTTTATTTTCGGAGTCACCTAGTGCAG | 9930 fluorescence intensity (a.u.)
41 | TTATACTCCCTCCGTTTCGAAATGTTTGACGCCGTTGACTCGGAGTCACCTAGTGCAG | 11400 fluorescence intensity (a.u.)
42 | ACCTGGCATTGTATCATGGTCGCTTCCTTTTCTGTTCTCACGGAGTCACCTAGTGCAG | 13400 fluorescence intensity (a.u.)
43 | TTCACTCCCGTCCCGGCCCTCTACTCCACTCCACCCACCGCGGAGTCACCTAGTGCAG | 10800 fluorescence intensity (a.u.)
44 | GAATTTTTCGGTCCCCAAACTTATCATGAGTGTCGTATATCGGAGTCACCTAGTGCAG | 9260 fluorescence intensity (a.u.)
45 | TATTTTCTGGATTCAATTGCCACGTAAGCGCCACATCATTCGGAGTCACCTAGTGCAG | 11900 fluorescence intensity (a.u.)
46 | CTTAATTTATGTCGTACTTTCTTGGGTTTCTATTTTTAAACGGAGTCACCTAGTGCAG | 12500 fluorescence intensity (a.u.)
47 | TACTGGTCGTCTGGTCTACTCCGTCTCTCCTCTTCTCTCCCGGAGTCACCTAGTGCAG | 12200 fluorescence intensity (a.u.)
48 | AATTGTGGCATGGCTCATGTTTGGGGTTATTTTTCAGATGCGGAGTCACCTAGTGCAG | 10200 fluorescence intensity (a.u.)
49 | ATTCCTGTGTTTTTCCTGCGGCCCAATCAAACAATCATTCCGGAGTCACCTAGTGCAG | 10300 fluorescence intensity (a.u.)
50 | TCACCCGTCCGCATCGTCGCCGGTCGCCGCCGGTCACCGCCGGAGTCACCTAGTGCAG | 8820 fluorescence intensity (a.u.)
51 | CTACGTCGCCCGTGTCTTGTGCTCTTCCTCTCTCGCGGACCGGAGTCACCTAGTGCAG | 8090 fluorescence intensity (a.u.)
52 | AGAATGCATCACTTTGCTTTTGGCCAAGGTCATTTGAGCTCGGAGTCACCTAGTGCAG | 10600 fluorescence intensity (a.u.)
53 | GCTGCTGAGCTCCGGCCGACCGAAGGTGCTCCATTCTCTCCGGAGTCACCTAGTGCAG | 9470 fluorescence intensity (a.u.)
54 | GGGTGGTGATTTTTTAATGGGCGGTGATATTTTTAAGTGTCGGAGTCACCTAGTGCAG | 9840 fluorescence intensity (a.u.)

Source: paper PMC7819943, “Rice protein-binding microarrays: a tool to detect cis-acting elements near promoter regions in rice”
